Test results from publication PMC4561369.
Results are given in words; binding and its absence hold for the method and conditions named. In cells and extracts the contact can be indirect. These calls come from enrichment with a bait or labelling near it, and not all partners need be listed.

Target: mutant p53 (mutp53) R172H protein of Trp53^R172H/R172H knock-in mice (mouse (endogenous in tissues of Trp53^R172H/R172H mice)) (UniProt P02340)
Experiment: affinity purification with mass spectrometry; lysates of thymic lymphomas of Trp53^R172H/R172H mice (n = 3); IP with anti-p53 (FL393) beads, eluted with 0.1 M glycine, bands of a 4–15% SDS gel analysed by LC-MS/MS; normal thymus as control

Row | Binder | binding
1 | Phgdh (protein, UniProt Q61753 1-533) MAFANLRKVLISDSLDPCCRKILQDGGLQVVEKQNLSKEELIAELQDCEGLIVRSATKVTADVINAAEKLQVVGRAGTGVDNVDLEAATRKGILVMNTPNGNSLSAAELTCGMIMCLARQIPQATASMKDGKWDRKKFMGTELNGKTLGILGLGRIGREVATRMQSFGMKTVGYDPIISPEVAASFGVQQLPLEEIWPLCDFITVHTPLLPSTTGLLNDSTFAQCKKGVRVVNCARGGIVDEGALLRALQSGQCAGAALDVFTEEPPRDRALVDHENVISCPHLGASTKEAQSRCGEEIAVQFVDMVKGKSLTGVVNAQALTSAFSPHTKPWIGLAEAMGTLMHAWAGSPKGTIQVVTQGTSLKNAGTCLSPAVIVGLLREASKQADVNLVNAKLLVKEAGLNVTTSHNPGVPGEQGSGECLLTVALAGAPYQAVGLVQGTTPMLQMLNGAVFRPEVPLRRGQPLLVFRAQPSDPGMLPTMIGLLAEAGVQLLSYQTSMVSDGEPWHVMGLSSLLPSLETWKQHVLEAFQFCF | binds
2 | Slc25a3 (protein, UniProt Q8VEM8 46-357) AVEEYSCEFGSMKYYALCGFGGVLSCGLTHTAVVPLDLVKCRMQVDPQKYKGIFNGFSITLKEDGVRGLAKGWAPTLIGYSMQGLCKFGFYEVFKALYSNILGEENTYLWRTSLYLASSASAEFFADIALAPMEAAKVRIQTQPGYANTLREAVPKMYKEEGLNAFYKGVAPLWMRQIPYTMMKFACFERTVEALYKFVVPKPRSECTKAEQLVVTFVAGYIAGVFCAIVSHPADSVVSVLNKEKGSTASQVLQRLGFRGVWKGLFARIIMIGTLTALQWFIYDSVKVYFRLPRPPPPEMPESLKKKLGLTE | binds
3 | Copg (protein, UniProt Q9QZE5 1-874) MLKKFDKKDEESGGGSNPLQHLEKSAVLQEARVFNETPINPRKCAHILTKILYLINQGEHLGTTEATEAFFAMTKLFQSNDPTLRRMCYLTIKEMSCIAEDVIIVTSSLTKDMTGKEDNYRGPAVRALCQITDSTMLQAVERYMKQAIVDKVPSVSSSALVSSLHLLKCSFDVVKRWVNEAQEAASSDNIMVQYHALGLLYHVRKNDRLAVSKMISKFTRHGLKSPFAYCMMIRVASKQLEEEDGSRDSPLFDFIESCLRNKHEMVVYEAASAIVNLPGCSAKELAPAVSVLQLFCSSPKAALRYAAVRTLNKVAMKHPSAVTACNLDLENLVTDSNRSIATLAITTLLKTGSESSIDRLMKQISSFMSEISDEFKVVVVQAISALCQKYPRKHAVLMNFLFTMLREEGGFEYKRAIVDCIISIIEENSESKETGLSHLCEFIEDCEFTVLATRILHLLGQEGPKTNNPSKYIRFIYNRVVLEHEEVRAGAVSALAKFGAQNEEMLPSILVLLKRCVMDDDNEVRDRATFYLNVLEQKQKALNAGYILNGLTVSIPGLEKALQQYTLEPSEKPFDLKSVPLATTPMAEQRPESTATAAVKQPEKVAATRQEIFQEQLAAVPEFQGLGPLFKSSPEPVALTESETEYVIRCTKHTFSDHLVFQFDCTNTLNDQTLENVTVQMEPTEAYEVLSYVPARSLPYNQPGTCYTLVALPTEDPTAVACTFSCVMKFTVKDCDPNTGEIDEEGYEDEYVLEDLEVTVADHIQKVMKVNFEAAWDEVGDEFEKEETFTLSTIKTLEEAVGNIVKFLGMHPCERSDKVPENKNTHTLLLAGVFRGGHDILVRSRLLLLDTVTMQVTARSSEELPVDIILASVG | binds
4 | Hyou1 (protein, UniProt Q9JKR6 33-999) LAVMSVDLGSESMKVAIVKPGVPMEIVLNKESRRKTPVTVTLKENERFLGDSAAGMAIKNPKATLRYFQHLLGKQADNPHVALYRSRFPEHELIVDPQRQTVRFQISPQLQFSPEEVLGMVLNYSRSLAEDFAEQPIKDAVITVPAFFNQAERRAVLQAARMAGLKVLQLINDNTATALSYGVFRRKDINSTAQNVMFYDMGSGSTVCTIVTYQTVKTKEAGMQPQLQIRGVGFDRTLGGLEMELRLREHLAKLFNEQRKGQKAKDVRENPRAMAKLLREANRLKTVLSANADHMAQIEGLMDDVDFKAKVTRVEFEELCADLFDRVPGPVQQALQSAEMSLDQIEQVILVGGATRVPKVQEVLLKAVGKEELGKNINADEAAAMGAVYQAAALSKAFKVKPFVVRDAVIYPILVEFTREVEEEPGLRSLKHNKRVLFSRMGPYPQRKVITFNRYSHDFNFHINYGDLGFLGPEDLRVFGSQNLTTVKLKGVGESFKKYPDYESKGIKAHFNLDESGVLSLDRVESVFETLVEDSPEEESTLTKLGNTISSLFGGGTSSDAKENGTDAVQEEEESPAEGSKDEPAEQGELKEEAEPPAEETSQPPPSEPKGDAAREGEKPDEKESGDKPEAQKPNEKGQAGPEGAAPAPEEDKKPKPARKQKMVEEIGVELAVLDLPDLPEDELARSVQKLEELTLRDLEKQEREKAANSLEAFIFETQDKLYQPEYQEVSTEEQREEISGKLSATSTWLEDEGFGATTVMLKDKLAELRKLCQGLFFRVEERRKWPERLSALDNLLNHSSIFLKGARLIPEMDQVFTEVEMTTLEKVINDTWAWKNATLAEQAKLPATEKPVLLSKDIEAKMMALDREVQYLLNKAKFTKPRPRPKDKNGTRAEPPLNASAGDQEEKVIPPAGQTEEAKPILEPDKEETGTEPADSEPLELGGPGAGPEQEEQSAGQKRPSKNDEL | binds
5 | Rars (protein, UniProt Q9D0I9 1-660) MDGLVAQCSARLLQQEREIKALTAEIDRLKNCGCLEASPSLEQLREENLKLKYRLNILRRSLQEERRKPTKNMININSRLQEVFGCAIRAAYPDLENPPLIVTPSQQPKFGDYQCNSAMGISQMLKAKEQKVSPREIAENITKHLPNNKYIDKVEIAGPGFINVHLRKDFVSEQLTSLLVNGVQLPVLGDKEKVIVDFSSPNIAKEMHVGHLRSTIIGESMSRLFEFAGYDVLRLNHVGDWGTQFGMLIAHLQDKFPDYLTVSPPIGDLQAFYKESKKRFDADEEFKKRAYQCVVLLQSKNPDIMKAWNLICDVSREEFKKIYDALDITLIERGESFYQDRMKDIVKEFEDKGFVQVDDGRKIVFVPGCSVPLTIVKSDGGYTYDTSDLAAIKQRLFEEKANKIIYVVDNGQAIHFQTIFAAAQMIGWYDPKVTLVTHVGFGVVLGEDKKKFKTRSGETVRLMDLLEEGLKRSMDKLKEKERDKVLTEEELKAAQTSVAYGCIKYADLSHNRLNDYIFSFDKMLDDRGNTAAYLLYAFTRIRSIARLANIDEAMLQRAARETKIILDHEKEWKLGRCILRFPEILQKILDDLFLHTLCDYIYELATTFTEFYDSCYCVEKDRQTGKVLKVNMWRMLLCEAVAAVMAKGFDILGIKPVQRM | binds

Further lines, results first:

Row | binding | Binder
6 | binds | Dars (protein, UniProt Q922B2 1-501) MPSTNASRKGQEKPREIVDAAEDYAKERYGISSMIQSQEKPDRVLVRVKDLTVQKADDVVWVRARVHTSRAKGKQCFLVLRQQQFNVQALVAVGDHASKQMVKFAANINKESIIDVEGVVRKVNQKIGSCTQQDVELHVQKIYVISLAEPRLPLQLDDAIRPEVEGEEDGRATVNQDTRLDNRVIDLRTSTSQAIFRLQSGICHLFRETLINKGFVEIQTPKIISAASEGGANVFTVSYFKNNAYLAQSPQLYKQMCICADFEKVFCIGPVFRAEDSNTHRHLTEFVGLDIEMAFNYHYHEVVEEIADTLVQIFKGLQERFQTEIQTVSKQFPCEPFKFLEPTLRLEYCEALAMLREAGVEMDDEEDLSTPNEKLLGRLVKEKYDTDFYVLDKYPLAVRPFYTMPDPRNPKQSNSYDMFMRGEEILSGAQRIHDPQLLTERALHHGIDLEKIKAYIDSFRFGAPPHAGGGIGLERVTMLFLGLHNVRQTSMFPRDPKRLTP
7 | binds | Hadhb (protein, UniProt Q99JY0 35-475) SAPAVQTKSKKTLAKPNMKNIVVVEGVRIPFLLSGTSYKDLMPHDLARAALSGLLHRTNIPKDVVDYIIFGTVIQEVKTSNVAREAALGAGFSDKTPAHTVTMACISSNQAMTTAVGLIASGQCDVVVAGGVELMSDVPIRHSRNMRKMMLDLNKAKTLGQRLSLLSKFRLNFLSPELPAVAEFSTNETMGHSADRLAAAFAVSRMEQDEYALRSHSLAKKAQDEGHLSDIVPFKVPGKDTVTKDNGIRPSSLEQMAKLKPAFIKPYGTVTAANSSFLTDGASAMLIMSEDRALAMGYKPKAYLRDFIYVSQDPKDQLLLGPTYATPKVLEKAGLTMNDIDAFEFHEAFSGQILANFKAMDSDWFAQNYMGRKTKVGSPPLEKFNIWGGSLSLGHPFGATGCRLVMAAANRLRKDGGQYALVAACAAGGQGHAMIVEAYPK
